# Measurements: PubChem BioAssay AID504648 (National Center for Advancing Translational Sciences (NCATS), 2011)
# The whole screen tested about 390,000 compounds, of which about 610 (0.16%) were called active. The shares of active, inactive and inconclusive entries below differ from those in the screen. Calls follow the shape of the dose curve; as a rule, active = well fitted inhibition curve with a large enough effect; inconclusive = small, poorly fitted or top-dose-only effect, or effect the other way, or another doubt; inactive = no such curve, though single readings can be large or run the other way. Potencies of inconclusive entries are doubtful fits and often do not repeat.
# Assay: Nrf2 qHTS screen for inhibitors: counterscreen for cytotoxicity
# Settings: A549 ARE-Fluc cells, CellTiter-Fluor viability, 18-24 h; series mostly up to 46 µM
# Outline: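 Cytotoxicity counterscreen: CellTiter-Fluor fluorescence was measured in A549 ARE_Fluc cells after 18-24 h of compound exposure in a concentration series. The subsequent BugLite luminescent read reports ARE-luciferase activity.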
# Potency is read from the fitted curve at half-maximal effect.
row,SMILES,Potency
1,Cc1nnnn1/C(=C\c1ccccc1)C(=O)OCC(=O)NC1CCCCC1,"inconclusive: 29.1 µM [falling, single point]"
2,CC1(C)SC(=S)N(/N=C/c2ccc(O)cc2)C1N(O)C(=O)Nc1ccc([N+](=O)[O-])cc1 (stereo not drawn),"inconclusive: 9.2 µM [falling, partial curve, poor fit]"
3,COc1cccc(CNCCc2c[nH]c3ccccc23)c1OCc1ccccc1F,"inconclusive: 29.1 µM [falling, single point]"
4,CC(/C=N/n1c(-c2ccc(C)cc2)n[nH]c1=S)=C\c1ccco1,inactive
5,CCOC(=O)C1=NNC2C(=O)N(C3CCCCC3)C(=O)C12 (stereo not drawn),"inconclusive: 0.0731 µM [activator, full curve, poor fit]"
6,CCn1c(-c2sc(-c3ccccc3)nc2C)n[nH]c1=S,inactive
7,c1ccc(N(c2ccccc2)c2nc(N3CCCC3)nc(-n3ccnc3)n2)cc1,"inconclusive: 23.1 µM [falling, single point]"
8,Cc1cc(C(C#N)c2cccc(Cl)c2)n2ncnc2n1 (stereo not drawn),"inconclusive: 20.6 µM [falling, partial curve, poor fit]"
9,O=C1c2ccccc2-c2n[nH]c(=O)c3ccc(N4CCCCC4)c1c23,"inconclusive: 18.4 µM [falling, partial curve, poor fit]"
10,CS(=O)(=O)N1CCN(c2ccc([N+](=O)[O-])c(SCc3ccco3)c2)CC1,"inconclusive: 20.6 µM [falling, partial curve, poor fit]"
11,O=C(N/N=C/c1ccc(Cl)cc1)c1n[nH]c2c1CCCC2,"inconclusive: 7.31 µM [falling, full curve, poor fit]"
12,CCOC(=O)C1CCN(C(=O)c2oc3ccc(S(=O)(=O)N4CC(C)CC(C)C4)cc3c2C)CC1 (stereo not drawn),"inconclusive: 4.61 µM [falling, partial curve, poor fit]"
13,COc1ccc(S(=O)(=O)NCc2ccc3c(c2)cc(C)n3C)cc1,inactive
14,COc1ccc(S(=O)(=O)NNC(=O)c2cc3c4ccccc4n(C)c3s2)cc1,inactive
15,CC(C)(C)C(=O)NC(=S)NCc1ccccc1,inactive
16,CCOc1ccc(Cl)cc1S(=O)(=O)NCc1cccnc1,"inconclusive: 32.6 µM [falling, partial curve, poor fit]"
17,Cc1cc(N2CCN(C(=O)c3ccco3)CC2)n2nc(-c3cccc(Cl)c3)cc2n1,"inconclusive: 18.4 µM [falling, single point]"
18,COc1ccc(C(=O)/C=C/C(=O)N(CC(=O)NC2CCCCC2)CC2CCCO2)c(O)c1 (stereo not drawn),"inconclusive: 23.1 µM [falling, partial curve, poor fit]"

# A different layout for 2 compounds above:
row | SMILES | Potency
7 | c1ccc(N(c2ccccc2)c2nc(N3CCCC3)nc(-n3ccnc3)n2)cc1 | inconclusive: 23.1 µM [falling, single point]
18 | COc1ccc(C(=O)/C=C/C(=O)N(CC(=O)NC2CCCCC2)CC2CCCO2)c(O)c1 (stereo not drawn) | inconclusive: 23.1 µM [falling, partial curve, poor fit]
